Laboratory results taken from publication PMC12637713.
These are yes or no findings as the source states them, for the method shown. Binding seen in cells or lysates may run through a third protein. For some assays here: A result given as binding can be weak or reduced; the word gives no strength. Where a sequence is shown, tags or fusion partners need not be part of it.

Key:
[1] = biological target: GFP-tagged DS1-VP7 (VP7 of human rotavirus DS1 strain) (human rotavirus DS1 strain); assay: co-IP; HEK293 cells co-transfected; NP40 lysis buffer; lysates incubated overnight at 4 °C with Dynabeads protein G coupled with anti-GFP antibody; immunoblot with anti-GFP and anti-FLAG
[2] = biological target: GFP-tagged rotavirus NSP4 (rotavirus (strain not stated)); assay: as above

B1: C-terminally Flag-tagged SPCS1 (protein, UniProt Q9Y6A9 1-169)
chain: MARGGDTGCTGPSETSASGAAAIALPGLEGPATDAQCQTLPLTVLKSRSPSPRSLPPALSCPPPQPAMLEHLSSLPTQMDYKGQKLAEQMFQGIILFSAIVGFIYGYVAEQFGWTVYIVMAGFAFSCLLTLPPWPIYRRHPLKWLPVQESSTDDKKPGERKIKRHAKNN
B1 was tested. Which binding [1] did it give?
The binding was “binds”.

And the binding [2]?
Its binding is “no binding”.
